From article doi:10.1101/2022.09.16.508221 (bioRxiv, 2022)
These are yes or no findings as the source states them, for the method shown.

Molecular target: N-terminal BED domain of the Hermes transposase (residues 1-78) (Musca domestica) (UniProt Q25438)
Experiment: crystal structure

B1: N-terminal BED domain of the Hermes transposase (residues 1-78) (domain or fragment, UniProt Q25438 1-78)
chain: MQKMDNLEVKAKINQGLYKITPRHKGTSFIWNVLADIQKEDDTLVEGWVFCRKCEKVLKYTTRQTSNLCRHKCCASLK
  binding: no binding
